In PubChem BioAssay AID493014 (National Center for Advancing Translational Sciences (NCATS), 2011):
Where “and” joins values, the source holds several entries; their conditions need not be identical. Equal entries are not always repeated. This is one part of the list. Further columns of the screen follow, without active or inactive calls. Most of these compounds were active or inconclusive in the main read-out, so they are no random draw. Potencies come from curve fits of mixed quality, noted in brackets.

Experiment: qHTS Assay to Find Inhibitors of Chronic Active B-Cell Receptor Signaling
Conditions: ABC-DLBCL IkBa-CBG/CBR reporter, luminescence ratio (green luciferase fused to IkBa over red control in TMD8 lymphoma cells), 4 h
How it was run: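 Concentration-response series (up to 46 uM) were applied to TMD8 dual-reporter cells for 4 h at 37C with doxycycline. Green/red ratio, after filter-overlap correction, defined %Activity; red signal alone was normalised to basal cells and zero luminescence.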

[1] = measured here: CBR red luminescence, cell number
[2] = measured here: IkBa-CBG green luminescence

Row | SMILES | AC50 [1] | AC50 [2]
1 | O=C(OCC(=O)N1CCc2ccccc21)c1ccccn1 | 35.5 µM [falling, single point] | –
2 | CCCCCc1ccc(-c2ccc(/C=C/C(=O)O)cc2)nc1 | 0.82 µM [falling, full curve] | –
3 | O=C(NCC1CCCN(C(=O)c2cscn2)C1)c1ccc(-c2ccccc2)cc1 (stereo unspecified) | 12.6 µM [rising, partial curve] | –
4 | COc1cc(C(=O)COC(=O)c2cccs2)cc(OC)c1OC | 6.51 µM [rising, single point] | –
5 | O=C(N/N=C\c1cc2c(cc1Cl)OCO2)c1cccs1 | 20 µM [falling, partial curve, poor fit] | –
6 | COc1ccc(C(=O)Nc2ccccc2C(=O)Nc2ccc(C(=O)O)cc2)cc1 | 11.2 µM [falling, partial curve] | –
7 | CC1=C(C(=O)Nc2ccc(C(=O)N3CCN(c4cccc(Cl)c4)CC3)cc2)SCCO1 | 6.31 µM [falling, partial curve, poor fit] | –
8 | COc1ccc(NS(=O)(=O)c2cc(N=Nc3c(O)[nH]c(=O)[nH]c3=O)ccc2Cl)cc1 | 6.51 µM [rising, partial curve, poor fit] | –
9 | Cc1nsc2nc3c(F)c(F)c(F)c(F)c3cc12 | 35.5 µM [falling, single point] | 11.2 µM [rising, partial curve, poor fit]
10 | CN(C)S(=O)(=O)c1ccc(Cl)c(NC(=O)COC(=O)CCC(=O)c2cccs2)c1 | 0.562 µM [rising, full curve, poor fit] | –
11 | COc1cccc(-c2csc(N3CCN(C(=O)NC45CC6CC(CC(C6)C4)C5)CC3)n2)c1 | 23.1 µM [rising, partial curve, poor fit] | –
12 | COc1ccccc1NC(=O)CN1CCC(c2nc3ccc(C)cc3[nH]2)CC1 | 3.55 µM [rising, partial curve, poor fit] | –
13 | CCOC(=O)C(=NC(C)CC)NNc1cccc(C(F)(F)F)c1 (stereo unspecified) | 6.51 µM [rising, single point] | –
14 | CCOc1ccc(NC(=O)c2nc(SCC)ncc2Cl)cc1 | 35.5 µM [rising, single point] | –
15 | C=CCSc1nnc(NC(=O)c2c(CC)noc2C)s1 | 20.6 µM [falling, single point] | –
16 | Cc1nc2cc(NCc3nc4ccccc4n3Cc3ccccc3)ccc2n1C | 11.2 µM [falling, partial curve, poor fit] | –
17 | O=[N+]([O-])c1ccc(-c2nc(-c3cccs3)c(-c3cccs3)[nH]2)cc1 | 8.91 µM [falling, partial curve] | –
18 | COc1ccc(C/C(N)=N/OC(=O)c2cccc([N+](=O)[O-])c2)cc1 | 9.2 µM [rising, partial curve, poor fit] | –
19 | CN(C(=O)Nc1ccccc1)C1CCCCC1 | 3.98 µM [rising, full curve, poor fit] | –
20 | Cc1c(C(=O)C(=O)NCC2CCCO2)c2ccccc2n1C (stereo unspecified) | 14.1 µM [rising, single point] | –
21 | O=[N+]([O-])c1cccc(S(=O)(=O)N/N=C/c2ccc(O)cc2)c1 | 22.4 µM [falling, partial curve, poor fit] | –
22 | O=C(C#Cc1ccccc1)Nc1ccccc1F | 14.1 µM [falling, partial curve] | –

Row | SMILES | AC50 [1] | AC50 [2]
23 | O=S(=O)(c1ccc2oc3ccccc3c2c1)N1CCOCC1 | 4.11 µM [rising, partial curve, poor fit] | –
24 | O=c1c2ccccc2c2ccccc2c(=O)n1Cc1cccnc1 | 4.11 µM [falling, partial curve, poor fit] | –
25 | Cc1nnc(SCCC(C)C)[nH]c1=O | 35.5 µM [falling, single point] | –
26 | CCSc1nnc(NC(=O)C2CCCN(S(=O)(=O)c3cnc[nH]3)C2)s1 (stereo unspecified) | 13 µM [falling, partial curve] | –
27 | COc1ccc(-n2nc(C(=O)NCC(=O)N3CCN(c4ccccn4)CC3)c3ccccc3c2=O)cc1OC | 3.55 µM [rising, partial curve] | –
28 | CCOC(=O)c1nc(Nc2ccc(Nc3ccccc3)cc2)c2ccccc2n1 | 11.2 µM [falling, single point] | –
29 | COc1ccc(-c2ccc(SCC(=O)NC3CCCCC3)nn2)cc1OC | 0.794 µM [falling, full curve, poor fit] | –
30 | N#CCCN(Cc1cccnc1)C(=O)Nc1ccccc1 | 6.51 µM [falling, single point] | –
31 | O=C(NCc1cccs1)C1CC(c2ccc(Cl)c(Cl)c2)=NO1 (stereo unspecified) | 7.08 µM [rising, partial curve, poor fit] | –
32 | Cc1ccccc1NC(=O)Cc1nc(COC(=O)c2cc([N+](=O)[O-])ccc2N)cs1 | 15.8 µM [falling, partial curve, poor fit] | –
33 | O=C(Nc1ccccc1-c1nnn(CC(=O)N2CCCc3ccccc32)n1)c1ccco1 | 22.4 µM [falling, single point] | –
34 | COc1ccc(C(O)c2nccn2Cc2ccccc2)cc1OC (stereo unspecified) | 12.6 µM [falling, partial curve] | –
35 | CC(C)C1CC(CCNCc2ccc(N(C)C)cc2)(c2ccccc2)CCO1 (stereo unspecified) | 15.8 µM [falling, single point] | –
36 | O=C(c1ccco1)n1nc(-c2ccco2)nc1SCc1ccccc1 | 5.17 µM [falling, partial curve] | –
37 | COc1cc(-n2nc(C)c3c2OC(N)=C(C#N)C3c2ccccc2)c(Cl)c(Br)c1O (stereo unspecified) | 18.4 µM [falling, single point] | –
38 | Cc1ccc2cc(C)c3nnc(SCC(=O)Nc4nc5c(s4)CCCC5)n3c2c1C | 0.891 µM [falling, full curve, poor fit] | –
39 | COc1ccc(C(=O)N/N=C\c2ccoc2)cc1 | 2 µM [falling, full curve, poor fit] | –
40 | CCS(=O)(=O)Nc1ccc(C2=NN(C(=O)c3ccccc3)C(c3cccs3)C2)cc1 (stereo unspecified) | 35.5 µM [falling, single point] | –
41 | COc1ccc(-c2ccc(OC)c([C@H]3[C@@H]4C=CCC[C@@]4(C)C(=O)N3Cc3ccccc3)c2)cc1OC | 20 µM [falling, single point] | –
42 | O=C(OCC(=O)N1CCCc2ccccc21)c1cccc(C(F)(F)F)c1 | 23.1 µM [rising, single point] | –
43 | CCNC(=S)Nc1cc(OCC)c(NC(=O)c2cccs2)cc1OCC | 6.51 µM [rising, single point] | –
44 | Cc1ccc(-c2cc(C(=O)Nc3cccnc3)[nH]n2)c(O)c1C | 10 µM [falling, single point] | –

Row | SMILES | AC50 [1] | AC50 [2]
45 | Cc1ccc(S(=O)(=O)NNC(=O)Nc2cccc(F)c2)c(C)c1 | 31.6 µM [rising, single point] | –
46 | CN1CCc2cccc3c2[C@H]1Cc1ccc(O)c(O)c1-3 | 29.1 µM [falling, single point] and 4.61 µM [rising, full curve, poor fit] | 3.66 µM [falling, partial curve]
47 | CN(c1ccccc1)S(=O)(=O)c1cccc(C(=O)NCCc2ccc(O)c(O)c2)c1 | 7.08 µM [falling, full curve, poor fit] | –
48 | Cc1c(C)n(CC(O)CN2CCCCCC2)c2ccccc12 (stereo unspecified) | 11.2 µM [falling, partial curve, poor fit] | –
49 | Cc1cc(C)nc(NN=C2CCCC2)n1 | 0.206 µM [falling, partial curve, poor fit] | –
50 | Cc1ccc(COC(=O)c2ccc3ccccc3n2)cc1 | 17.8 µM [rising, partial curve] | –
51 | CCOc1ccc(NC(=O)c2ccccc2CO)cc1 | 0.00461 µM [falling, full curve, poor fit] | –
52 | Nc1cc(-c2cccc([N+](=O)[O-])c2)[nH]n1 | 23.1 µM [rising, partial curve, poor fit] | –
53 | COc1cccc(CNc2nc3nc(C)c(Cl)c(=O)n3[nH]2)c1 | 11.2 µM [falling, partial curve, poor fit] | –
54 | Cn1c(N)c(C(=O)c2ccc(Cl)cc2)c(=O)n(C)c1=O | 6.51 µM [falling, single point] | –
55 | Cc1ccc(S(=O)(=O)N2CCCC2C(=O)OCC(=O)Nc2ccc3c(c2)OCO3)cc1 (stereo unspecified) | 3.16 µM [falling, full curve] | –
56 | CC(=O)N1CCN(c2ccc(NC(=O)c3ccc(C(C)(C)C)cc3)cc2)CC1 | 29.1 µM [falling, single point] | –
57 | O=S(=O)(NCc1ccco1)c1ccc2ccccc2c1 | 0.282 µM [rising, full curve, poor fit] | –
58 | CC1CCCCN1CC(=O)Nc1cc(S(=O)(=O)N2CCOCC2)ccc1N1CCCC1 (stereo unspecified) | 31.6 µM [rising, single point] | –
59 | COc1ccc(C(=O)NCc2nnc(SCC(=O)c3ccccc3)n2C)cc1 | 10 µM [rising, partial curve, poor fit] | –
60 | CC(C)(C)NC(=O)c1oc2ccccc2c1COc1ccccc1 | 25.9 µM [rising, single point] | –
61 | CC(C)CC(=O)Nc1nnc(CCc2ccccc2)s1 | 14.1 µM [rising, single point] | –
62 | Cn1cc(/C=N/NC(=O)COc2ccccc2[N+](=O)[O-])c2ccccc21 | 29.1 µM [falling, single point] | –
63 | CC(C)C(=O)NC(=S)/C=C1/N(C)c2ccccc2C1(C)C | – | 20 µM [falling, partial curve, poor fit]
64 | N#CC1=C(N)N(c2ccc(Br)cc2)C2=C(C(=O)CCC2)C1c1cccnc1 (stereo unspecified) | 0.92 µM [falling, full curve] | –

Some of the entries so far, as comma-separated lines:
Row,SMILES,AC50 [1],AC50 [2]
11,COc1cccc(-c2csc(N3CCN(C(=O)NC45CC6CC(CC(C6)C4)C5)CC3)n2)c1,"23.1 µM [rising, partial curve, poor fit]",–
12,COc1ccccc1NC(=O)CN1CCC(c2nc3ccc(C)cc3[nH]2)CC1,"3.55 µM [rising, partial curve, poor fit]",–
13,CCOC(=O)C(=NC(C)CC)NNc1cccc(C(F)(F)F)c1 (stereo unspecified),"6.51 µM [rising, single point]",–
14,CCOc1ccc(NC(=O)c2nc(SCC)ncc2Cl)cc1,"35.5 µM [rising, single point]",–
